The text below walks through data of patent US9090583B2, “Benzopyrone estrogen receptor regulator” (BEIJING SHENOGEN PHARMA GROUP LTD., priority 2010, dated 2015).

Common to all, as to type: cell-based
The subject of one assay is K562 cells. Kind of assay: CellTiter-Glo Luminescent Cell Viability Assay on leukemia K562 cells. The conditions noted are these: Homo sapiens, 72 hours, read-out: Inhibition of the viability of leukemia cells, IC50. The protocol:
A: In Vitro CellTiter-Glo® Luminescent Cell Viability Assay on Leukemia K562 Cells
(§1) The leukemia K562 cells were obtained from ATCC and maintained in IMDM and 10% fetal calf serum at 37° C., under 5% CO2 atmosphere. The cells were seeded on 96-well plate at a density of 6×10^3 cells per well. K562 cells were treated with a test compound dissolved in DMSO at the concentrations of zero, 0.3 μM, 0.5 μM, 1 μM, 2 μM, 3 μM, 5 μM, 10 μM, 20 μM, 30 μM, 50 μM and 100 μM for 72 hours. Treated cells were examined by CellTiter-Glo® Luminescent Cell Viability Assay Kit (Promega), and luminescence values were recorded with Envision.
On the technique in general: ATP-based viability assays read luminescence as a measure of living cells.

For another assay, the system named is Molt-4 cells. The assay is described as follows: CellTiter-Glo Luminescent Cell Viability Assay on leukemia Molt-4 cells. The note with it: Homo sapiens, 72 hours, read-out: Inhibition of the viability of leukemia cells, IC50. The protocol:
C: In Vitro CellTiter-Glo® Luminescent Cell Viability Assay on Leukemia Molt-4 Cells
The leukemia Molt-4 cells were obtained from ATCC and maintained in RPMI-1640 and 10% fetal calf serum at 37° C., under 5% CO2 atmosphere. The cells were seeded on 96-well plate at a density of 6×10^3 cells per well. […] were treated with a test compound dissolved in DMSO at the concentrations of zero, 0.3 μM, 0.5 μM, 1 μM, 2 μM, 3 μM, 5 μM, 10 μM, 20 μM, 30 μM, 50 μM and 100 μM for 72 hours. Treated cells were examined by CellTiter-Glo® Luminescent Cell Viability Assay Kit (Promega), and luminescence values were recorded with Envision.

For another assay, the system named is HL-60 cells. The assay is described as follows: CellTiter-Glo Luminescent Cell Viability Assay on leukemia HL-60 cells. The conditions noted are these: Homo sapiens, 72 hours, read-out: Inhibition of the viability of leukemia cells, IC50. Here is the method:
B: In Vitro CellTiter-Glo® Luminescent Cell Viability Assay on Leukemia HL-60 Cells
The leukemia HL-60 cells were obtained from ATCC and maintained in IMDM and 10% fetal calf serum at 37° C., under 5% CO2 atmosphere. The cells were seeded on 96-well plate at a density of 6×10^3 cells per well. HL-60 cells were treated with a test compound dissolved in DMSO at the concentrations of zero, 0.3 μM, 0.5 μM, 1 μM, 2 μM, 3 μM, 5 μM, 10 μM, 20 μM, 30 μM, 50 μM and 100 μM for 72 hours. Treated cells were examined by CellTiter-Glo® Luminescent Cell Viability Assay Kit (Promega), and luminescence values were recorded with Envision.

In another assay the test system is HEC-1A cells. The assay is described as follows: CellTiter-Glo Luminescent assay on endometrial cancer HEC-1A cells. The conditions noted are these: Homo sapiens, 72 hours, read-out: Inhibition of the viability of endometrial cancer cells, IC50. Here is the method: CellTiter-Glo® Luminescent Assay to Measure the Inhibitory Activity of the Compounds on In Vitro Growth of Endometrial Cancer HEC-1A Cells
as §1, with “HEC-1A cells are endometrial cancer cell lines only expressing ER-36. Human endometrial cancer HEC-1A” for “The leukemia K562”, “DMEM” for “IMDM”, “HEC-1A” for “K562”, “5” for “5 μM, 10”

The structures appear in SMILES notation.

Consider `CC/C(=C(\c1ccccc1)c1ccc(OCCN(C)C)cc1)c1ccccc1` [Tamoxifen, reference compound], for which the IC50 (as a rule, the concentration at which inhibition is half-maximal) in the assay with K562 cells was found to be 18.2 ± 5.65 µM; with Molt-4 cells, 11.7 µM; with HL-60 cells, 8.19 ± 3.89 µM; with HEC-1A cells, 19.5 µM.
